Measurements as given in patent publication US20080207488A1, “Method for Detecting Peptides Comprising a Cross-B Structure” (priority 2005, published 2008).
No constants are given. Whether binding was seen depends on the method and setting. Some entries that bind do so weakly or less than the wild type.

Key:
lysozyme, native [1] = target: lysozyme, native (UniProt P00698); test: ELISA, detection anti-FLAG HRP
alkyl-lysozyme [2] = target: alkyl-lysozyme (UniProt P00698); test: ELISA, detection anti-FLAG HRP
lysozyme, native [3] = target: lysozyme, native (UniProt P00698); test: ELISA, coated protein, Fn F4,5 dilution series
alkyl-lysozyme [4] = target: alkyl-lysozyme (UniProt P00698); test: ELISA, coated protein, Fn F4,5 dilution series

- binding (lysozyme, native [1]): binds
- binding (alkyl-lysozyme [2]): binds
- binding (lysozyme, native [3]): binds
- binding (alkyl-lysozyme [4]): binds
Substance: human fibronectin finger 4,5 (Fn F4,5) fragment with carboxy-terminal FLAG-tag-His-tag (from UniProt P02751 184-273)
